Experimental data taken from the supplement of paper PMC10849652.
This is one part of the list.

By UniProt entry, the sequences of proteins in these tests, tags left out. Where a name states a change or a piece, a line headed by the entry shows the natural chain unless it says otherwise.
UniProt O75688: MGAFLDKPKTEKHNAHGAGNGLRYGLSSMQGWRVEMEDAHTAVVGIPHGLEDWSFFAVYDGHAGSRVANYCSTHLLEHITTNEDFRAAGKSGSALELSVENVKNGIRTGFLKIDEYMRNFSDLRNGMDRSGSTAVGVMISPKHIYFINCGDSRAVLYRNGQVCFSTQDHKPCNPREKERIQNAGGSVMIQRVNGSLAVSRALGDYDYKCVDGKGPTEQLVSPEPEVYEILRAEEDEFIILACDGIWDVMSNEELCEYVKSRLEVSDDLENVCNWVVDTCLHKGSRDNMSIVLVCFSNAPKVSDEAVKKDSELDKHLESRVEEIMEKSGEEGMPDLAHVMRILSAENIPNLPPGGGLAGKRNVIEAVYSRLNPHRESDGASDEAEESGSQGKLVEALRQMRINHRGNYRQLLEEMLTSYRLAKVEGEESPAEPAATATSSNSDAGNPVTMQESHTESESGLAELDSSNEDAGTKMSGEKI
UniProt Q9H8W4: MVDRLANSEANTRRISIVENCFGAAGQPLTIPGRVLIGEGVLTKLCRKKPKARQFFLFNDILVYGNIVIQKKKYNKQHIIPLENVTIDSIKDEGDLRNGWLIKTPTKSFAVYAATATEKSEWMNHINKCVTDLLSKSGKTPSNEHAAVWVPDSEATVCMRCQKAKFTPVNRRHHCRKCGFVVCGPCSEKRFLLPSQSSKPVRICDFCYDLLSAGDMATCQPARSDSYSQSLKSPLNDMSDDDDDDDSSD
UniProt Q9BUI4: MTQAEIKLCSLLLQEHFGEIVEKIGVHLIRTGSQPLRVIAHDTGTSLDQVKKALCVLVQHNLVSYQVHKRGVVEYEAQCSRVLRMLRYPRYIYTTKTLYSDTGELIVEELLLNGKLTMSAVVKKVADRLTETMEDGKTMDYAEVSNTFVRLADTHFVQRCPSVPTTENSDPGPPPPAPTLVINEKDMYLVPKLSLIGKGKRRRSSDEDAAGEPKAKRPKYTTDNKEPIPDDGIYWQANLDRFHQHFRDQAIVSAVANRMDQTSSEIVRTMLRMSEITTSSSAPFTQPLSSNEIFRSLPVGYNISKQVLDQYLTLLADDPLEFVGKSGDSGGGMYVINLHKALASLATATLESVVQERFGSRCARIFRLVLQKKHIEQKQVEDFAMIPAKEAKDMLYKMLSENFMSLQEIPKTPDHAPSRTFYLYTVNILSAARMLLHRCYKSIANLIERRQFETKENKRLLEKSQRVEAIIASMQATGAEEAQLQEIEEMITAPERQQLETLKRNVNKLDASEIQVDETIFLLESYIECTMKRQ
UniProt A5A3E0, whole entry, looked up: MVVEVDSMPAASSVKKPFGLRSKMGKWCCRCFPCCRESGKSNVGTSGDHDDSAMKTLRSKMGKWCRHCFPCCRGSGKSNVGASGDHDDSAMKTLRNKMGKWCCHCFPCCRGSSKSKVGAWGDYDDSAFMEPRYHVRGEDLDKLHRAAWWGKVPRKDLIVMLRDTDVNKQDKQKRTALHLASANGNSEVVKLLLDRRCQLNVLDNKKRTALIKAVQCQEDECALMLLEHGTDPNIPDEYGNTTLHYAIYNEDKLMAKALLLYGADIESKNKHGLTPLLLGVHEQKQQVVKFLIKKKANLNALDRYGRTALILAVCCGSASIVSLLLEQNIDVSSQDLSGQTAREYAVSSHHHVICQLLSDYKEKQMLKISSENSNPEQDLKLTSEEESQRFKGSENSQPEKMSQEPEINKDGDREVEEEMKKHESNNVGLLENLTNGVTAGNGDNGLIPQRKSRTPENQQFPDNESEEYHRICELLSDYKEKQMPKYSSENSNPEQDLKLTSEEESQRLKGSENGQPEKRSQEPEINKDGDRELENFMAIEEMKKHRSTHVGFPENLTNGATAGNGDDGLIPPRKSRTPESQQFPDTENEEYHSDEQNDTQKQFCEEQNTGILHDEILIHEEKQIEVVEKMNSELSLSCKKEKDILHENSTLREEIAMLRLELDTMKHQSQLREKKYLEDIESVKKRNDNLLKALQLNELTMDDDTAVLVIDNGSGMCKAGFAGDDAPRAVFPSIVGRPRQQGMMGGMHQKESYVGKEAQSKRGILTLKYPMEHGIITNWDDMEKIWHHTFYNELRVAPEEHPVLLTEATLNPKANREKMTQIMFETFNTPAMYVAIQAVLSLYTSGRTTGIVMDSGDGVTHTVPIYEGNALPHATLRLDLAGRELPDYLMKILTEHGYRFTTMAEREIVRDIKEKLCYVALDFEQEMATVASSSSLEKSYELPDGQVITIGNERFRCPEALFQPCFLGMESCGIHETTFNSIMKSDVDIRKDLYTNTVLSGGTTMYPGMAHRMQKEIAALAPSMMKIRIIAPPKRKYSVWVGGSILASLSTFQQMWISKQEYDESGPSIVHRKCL
UniProt Q02809: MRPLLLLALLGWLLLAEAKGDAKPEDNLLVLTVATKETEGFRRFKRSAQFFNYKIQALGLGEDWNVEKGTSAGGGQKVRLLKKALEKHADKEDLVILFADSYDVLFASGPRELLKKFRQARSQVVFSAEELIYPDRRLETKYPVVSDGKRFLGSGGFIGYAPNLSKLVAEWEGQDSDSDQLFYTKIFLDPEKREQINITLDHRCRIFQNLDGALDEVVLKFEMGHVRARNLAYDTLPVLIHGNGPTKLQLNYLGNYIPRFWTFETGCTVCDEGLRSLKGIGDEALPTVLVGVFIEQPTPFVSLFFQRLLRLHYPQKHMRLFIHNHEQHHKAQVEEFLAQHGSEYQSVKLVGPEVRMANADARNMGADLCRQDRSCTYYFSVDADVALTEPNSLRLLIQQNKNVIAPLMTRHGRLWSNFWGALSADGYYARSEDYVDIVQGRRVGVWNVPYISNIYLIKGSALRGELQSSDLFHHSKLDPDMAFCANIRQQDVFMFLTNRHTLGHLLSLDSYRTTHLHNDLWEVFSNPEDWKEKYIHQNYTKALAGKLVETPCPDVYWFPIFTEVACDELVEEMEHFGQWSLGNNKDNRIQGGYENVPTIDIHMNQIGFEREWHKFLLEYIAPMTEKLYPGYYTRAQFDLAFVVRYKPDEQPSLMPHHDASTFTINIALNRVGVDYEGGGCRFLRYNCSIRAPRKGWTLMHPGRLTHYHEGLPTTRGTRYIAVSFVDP
UniProt Q6UW63: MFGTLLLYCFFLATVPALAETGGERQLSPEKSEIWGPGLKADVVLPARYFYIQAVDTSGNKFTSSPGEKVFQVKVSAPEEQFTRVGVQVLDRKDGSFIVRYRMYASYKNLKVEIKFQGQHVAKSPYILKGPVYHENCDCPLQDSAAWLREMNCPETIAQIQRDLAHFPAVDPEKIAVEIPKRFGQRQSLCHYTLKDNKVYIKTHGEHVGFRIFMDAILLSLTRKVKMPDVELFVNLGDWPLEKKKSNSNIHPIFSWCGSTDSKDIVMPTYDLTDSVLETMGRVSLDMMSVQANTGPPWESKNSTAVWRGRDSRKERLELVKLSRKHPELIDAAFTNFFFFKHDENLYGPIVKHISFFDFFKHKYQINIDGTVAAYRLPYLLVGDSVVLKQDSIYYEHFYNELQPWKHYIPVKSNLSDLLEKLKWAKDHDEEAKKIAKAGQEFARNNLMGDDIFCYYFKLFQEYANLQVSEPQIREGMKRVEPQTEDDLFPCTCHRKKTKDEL
UniProt Q969H6: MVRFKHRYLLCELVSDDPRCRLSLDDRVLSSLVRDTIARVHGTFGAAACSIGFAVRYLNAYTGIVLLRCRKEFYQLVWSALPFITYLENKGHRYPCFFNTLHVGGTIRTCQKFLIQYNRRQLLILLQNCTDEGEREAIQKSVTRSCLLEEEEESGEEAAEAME
UniProt Q96CD2: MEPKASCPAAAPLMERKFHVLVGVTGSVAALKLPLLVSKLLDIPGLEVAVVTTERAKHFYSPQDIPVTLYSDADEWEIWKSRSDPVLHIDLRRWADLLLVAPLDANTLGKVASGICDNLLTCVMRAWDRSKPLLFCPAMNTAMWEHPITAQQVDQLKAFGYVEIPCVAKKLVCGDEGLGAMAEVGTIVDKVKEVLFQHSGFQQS
UniProt Q9NQ55: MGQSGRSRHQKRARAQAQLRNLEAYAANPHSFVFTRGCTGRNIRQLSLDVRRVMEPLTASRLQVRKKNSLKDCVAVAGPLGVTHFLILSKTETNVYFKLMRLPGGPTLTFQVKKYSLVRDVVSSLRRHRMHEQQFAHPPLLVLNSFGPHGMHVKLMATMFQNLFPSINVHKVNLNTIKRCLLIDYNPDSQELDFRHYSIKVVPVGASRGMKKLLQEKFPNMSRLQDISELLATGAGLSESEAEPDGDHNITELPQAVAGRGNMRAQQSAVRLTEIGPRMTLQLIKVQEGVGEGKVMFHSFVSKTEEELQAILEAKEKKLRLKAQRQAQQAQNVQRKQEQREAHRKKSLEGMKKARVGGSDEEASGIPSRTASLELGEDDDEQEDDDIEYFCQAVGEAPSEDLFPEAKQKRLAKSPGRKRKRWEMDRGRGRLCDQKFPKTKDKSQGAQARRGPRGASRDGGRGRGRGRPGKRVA
UniProt O43314: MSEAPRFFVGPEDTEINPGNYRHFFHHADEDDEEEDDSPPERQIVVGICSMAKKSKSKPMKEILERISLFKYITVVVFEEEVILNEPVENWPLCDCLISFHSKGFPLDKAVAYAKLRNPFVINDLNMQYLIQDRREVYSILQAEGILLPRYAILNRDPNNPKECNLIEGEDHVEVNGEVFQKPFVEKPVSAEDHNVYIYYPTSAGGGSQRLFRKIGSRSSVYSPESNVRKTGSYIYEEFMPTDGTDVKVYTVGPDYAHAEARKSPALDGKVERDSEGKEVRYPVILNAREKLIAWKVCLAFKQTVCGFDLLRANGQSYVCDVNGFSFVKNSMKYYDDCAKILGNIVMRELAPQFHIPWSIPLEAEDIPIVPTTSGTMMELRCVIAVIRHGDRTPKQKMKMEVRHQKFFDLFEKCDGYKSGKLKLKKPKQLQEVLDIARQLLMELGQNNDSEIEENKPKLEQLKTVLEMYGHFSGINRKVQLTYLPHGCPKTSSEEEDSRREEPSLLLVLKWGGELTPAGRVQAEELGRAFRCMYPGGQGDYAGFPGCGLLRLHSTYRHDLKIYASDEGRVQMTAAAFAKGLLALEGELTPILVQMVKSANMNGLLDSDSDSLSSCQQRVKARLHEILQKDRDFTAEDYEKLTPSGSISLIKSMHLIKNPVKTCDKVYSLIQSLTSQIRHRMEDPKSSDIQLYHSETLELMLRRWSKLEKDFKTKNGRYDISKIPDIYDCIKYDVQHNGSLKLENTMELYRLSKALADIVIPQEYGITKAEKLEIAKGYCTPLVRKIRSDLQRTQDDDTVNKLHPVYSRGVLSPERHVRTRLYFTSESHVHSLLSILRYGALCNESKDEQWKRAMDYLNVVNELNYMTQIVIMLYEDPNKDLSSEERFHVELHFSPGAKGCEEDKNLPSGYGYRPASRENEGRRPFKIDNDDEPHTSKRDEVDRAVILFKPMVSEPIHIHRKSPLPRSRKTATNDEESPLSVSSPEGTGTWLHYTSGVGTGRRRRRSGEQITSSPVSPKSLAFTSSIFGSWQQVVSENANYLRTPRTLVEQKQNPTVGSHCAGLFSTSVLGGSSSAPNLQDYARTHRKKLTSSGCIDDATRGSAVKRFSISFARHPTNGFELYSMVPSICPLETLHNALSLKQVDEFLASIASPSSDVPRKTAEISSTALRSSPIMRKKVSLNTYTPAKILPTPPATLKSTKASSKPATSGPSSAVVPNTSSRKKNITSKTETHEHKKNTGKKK
UniProt Q9Y2S7: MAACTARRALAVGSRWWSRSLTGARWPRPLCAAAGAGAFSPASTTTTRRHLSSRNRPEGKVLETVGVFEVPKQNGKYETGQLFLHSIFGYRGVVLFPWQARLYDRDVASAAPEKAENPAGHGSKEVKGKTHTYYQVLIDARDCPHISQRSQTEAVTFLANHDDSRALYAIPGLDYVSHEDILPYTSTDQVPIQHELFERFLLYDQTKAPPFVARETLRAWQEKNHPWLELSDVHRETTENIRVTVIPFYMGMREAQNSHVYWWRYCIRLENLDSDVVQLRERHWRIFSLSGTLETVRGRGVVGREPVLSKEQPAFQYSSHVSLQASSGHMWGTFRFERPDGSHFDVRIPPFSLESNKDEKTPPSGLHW
UniProt P00491: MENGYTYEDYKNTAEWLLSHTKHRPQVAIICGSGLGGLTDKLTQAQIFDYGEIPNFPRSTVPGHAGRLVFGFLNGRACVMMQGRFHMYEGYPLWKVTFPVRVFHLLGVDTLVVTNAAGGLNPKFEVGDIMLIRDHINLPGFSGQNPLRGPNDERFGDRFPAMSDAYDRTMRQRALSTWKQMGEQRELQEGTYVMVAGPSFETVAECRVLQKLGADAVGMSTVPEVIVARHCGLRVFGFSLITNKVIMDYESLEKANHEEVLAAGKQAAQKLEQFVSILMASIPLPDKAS

Tests used:
Experiment in all cases: log2 fold change, soluble protein after heating vs DMSO (PISA); higher = thermal stabilisation; K562 cells, 10 uM, 30 min; active = over 0.2 and 3.5 SD of the protein, either way, in both replicates (recomputed)
[1] = compound: COC1=CC=C(C=C1)CN2C=CC3=C2C=C(C=C3)C(=O)NO
In short: (§1)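 K562 cells at 2×10^6 cells/mL were given 10 μM compound for 30 min. Aliquots then went through 3 min of heating across 48°C-58°C, were pooled, and were extracted in PBS with 0.5% NP-40 at 4°C, and the supernatant after 21,000xg for 90 min was quantified by TMTpro 16plex LC-MS/MS with channel sums equalised. Thermal stability relative to control samples, from duplicates, is given as log2 fold change.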

[2] = compound: CON(C)C(=O)N1N=C(c2cc(F)ccc2F)S[C@@]1(CCCN)c1ccccc1 [filanesib]
In short: as §1

[3] = compound: CO[C@H]1C[C@@H]2CC[C@@H](C)[C@@](O)(O2)C(=O)C(=O)N2CCCC[C@H]2C(=O)O[C@H]([C@H](C)C[C@@H]2CC[C@H](n3cnnn3)[C@H](OC)C2)CC(=O)[C@H](C)/C=C(\C)[C@@H](O)[C@@H](OC)C(=O)[C@H](C)C[C@H](C)/C=C/C=C/C=C/1C [zotarolimus]
In short: as §1

[4] = compound: COc1cc(C(=O)O)ccc1NC(=O)[C@@H]1N[C@@H](CC(C)(C)C)[C@](C#N)(c2ccc(Cl)cc2F)[C@H]1c1cccc(Cl)c1F [idasanutlin]
In short: as §1

[5] = compound: COc1cc(Nc2ncc3c(n2)-c2ccc(Cl)cc2C(c2c(F)cccc2OC)=NC3)ccc1C(=O)O [alisertib]
In short: as §1

[6] = compound: COc1cc2nc(-c3cc(F)ccc3O)nc(N[C@@H]3CNC[C@H]3C(C)(C)O)c2cc1OC
In short: as §1

[7] = compound: COc1cc2ncnc(Nc3ccc(F)c(Cl)c3)c2cc1OCCCN1CCOCC1 [gefitinib]
In short: as §1

[8] = compound: COc1cccc2cc(-c3nc([C@H]4CC[C@H](C(=O)O)CC4)n4ncnc(N)c34)[nH]c12
In short: as §1

[9] = compound: CS(=O)(=O)CCNCc1ccc(-c2ccc3ncnc(Nc4ccc(OCc5cccc(F)c5)c(Cl)c4)c3c2)o1 [lapatinib]
In short: as §1

[10] = compound: CS(=O)(=O)N1CCN(Cc2cc3nc(-c4cccc5[nH]ncc45)nc(N4CCOCC4)c3s2)CC1 [pictilisib]
In short: as §1

[11] = compound: CS(=O)(=O)c1ccc(-c2cnc(N)c(C(=O)Nc3ccccc3)n2)cc1
In short: as §1

[12] = compound: C[C@@H](Oc1cc(-c2cnn(C3CCNCC3)c2)cnc1N)c1c(Cl)ccc(F)c1Cl [crizotinib]
In short: as §1

[13] = compound: C[C@@H]1COCCN1C2=NC(=NC(=C2)C3(CC3)S(=O)(=O)C)C4=C5C=CNC5=CC=C4
In short: as §1

[14] = compound: C[C@H](C1=CC=C(C=C1)C(=O)NC2=C3C=CNC3=NC=C2)N
In short: as §1

[15] = compound: C[C@H](Nc1ncnc2nc[nH]c12)c1cc2cccc(Cl)c2c(=O)n1-c1ccccc1 [duvelisib]
In short: as §1

[16] = compound: Cc1cc(Nc2cc(CN3CCOCC3)c3nc(C)c(Cc4ccc(Cl)cc4F)n3n2)n[nH]1 [gandotinib]
In short: as §1

[17] = compound: Cc1cc(Nc2cc(N3CCN(C)CC3)nc(Sc3ccc(NC(=O)C4CC4)cc3)n2)n[nH]1 [tozasertib]
In short: as §1

[18] = compound: Cc1cc(SCc2sc(-c3ccc(C(F)(F)F)cc3)nc2C)ccc1OCC(=O)O
In short: as §1

[19] = compound: Cc1ccc(-n2nc(C(C)(C)C)cc2NC(=O)Nc2ccc(OCCN3CCOCC3)c3ccccc23)cc1 [doramapimod]
In short: as §1

[20] = compound: Cc1ccc(C(=O)N(CCCN)[C@@H](c2nc3cc(Cl)ccc3c(=O)n2Cc2ccccc2)C(C)C)cc1 [ispinesib]
In short: as §1

Measured: log2 fold change

PPM1B (UniProt O75688)
inactive: [1] -0.034 | [2] -0.057 | [3] -0.018 | [4] -0.042 | [5] 0.022 | [6] 0.051 | [7] 0.017 | [8] -0.002 | [9] 0.017 | [10] 0.062 | [11] 0.028 | [12] 0.031 | [13] 0.039 | [14] -0.041 | [15] 0.013 | [16] -0.042 | [17] 0.018 | [18] 0.027 | [19] -0.029 | [20] 0.087

PLEKHF2 (UniProt Q9H8W4)
inactive: [1] 0.007 | [2] -0.044 | [3] 0.027 | [4] 0.001 | [5] -0.015 | [6] 0.013 | [7] 0 | [8] 0.095 | [9] -0.036 | [10] -0.028 | [11] 0.016 | [12] -0.175 | [13] 0.119 | [14] -0.053 | [15] 0.025 | [16] -0.028 | [17] 0.003 | [18] 0.025 | [19] 0.067 | [20] -0.276

POLR3C (UniProt Q9BUI4)
inactive: [1] -0.011 | [2] -0.029 | [3] 0.018 | [4] -0.026 | [5] 0 | [6] -0.061 | [7] -0.006 | [8] 0.019 | [9] -0.013 | [10] 0.069 | [11] -0.032 | [12] 0.088 | [13] 0.032 | [14] -0.044 | [15] 0.05 | [16] -0.013 | [17] 0.017 | [18] 0.005 | [19] 0.024 | [20] 0.016

POTEF (UniProt A5A3E0)
inactive: [1] -0.048 | [2] 0.005 | [3] 0.009 | [4] 0.035 | [5] 0.015 | [6] 0.034 | [7] -0.005 | [8] -0.004 | [9] 0.015 | [10] 0.013 | [11] 0.004 | [12] 0.034 | [13] -0.011 | [14] 0 | [15] 0.115 | [16] 0.065 | [17] -0.007 | [18] -0.004 | [19] 0.005 | [20] 0.015

PLOD1 isoform 2 (UniProt Q02809)
inactive: [1] -0.072 | [2] 0.126 | [3] 0.034 | [4] 0.082 | [5] -0.125 | [6] 0.019 | [7] 0.01 | [8] -0.097 | [9] 0.107 | [10] -0.037 | [11] 0.043 | [12] 0.045 | [13] -0.126 | [14] 0.148 | [15] -0.052 | [16] 0.127 | [17] 0.027 | [18] 0.053 | [19] 0.074 | [20] -0.032

POGLUT2 (UniProt Q6UW63)
inactive: [1] -0.055 | [2] 0.028 | [3] 0.052 | [4] 0.087 | [5] -0.036 | [6] 0.019 | [7] -0.016 | [8] 0.053 | [9] 0.071 | [10] 0.051 | [11] 0.003 | [12] 0.015 | [13] -0.034 | [14] 0.062 | [15] -0.033 | [16] 0.044 | [17] -0.019 | [18] 0.026 | [19] 0.034 | [20] -0.026

PPFIA2 (UniProt O75334)
inactive: [1] -0.089 | [2] 0.125 | [3] -0.005 | [4] -0.078 | [5] 0.08 | [6] 0.005 | [7] -0.065 | [8] -0.083 | [9] 0.076 | [10] 0.056 | [11] 0.048 | [12] -0.102 | [13] -0.016 | [14] 0.228 | [15] 0.031 | [16] 0.021 | [17] -0.11 | [18] 0.114 | [19] 0.063 | [20] -0.066

POP5 (UniProt Q969H6)
inactive: [1] -0.004 | [2] 0.05 | [3] -0.039 | [4] 0.041 | [5] -0.105 | [6] -0.113 | [7] 0.163 | [8] 0.057 | [9] 0.025 | [10] -0.126 | [11] -0.006 | [12] 0.063 | [13] -0.004 | [14] -0.036 | [15] -0.031 | [16] 0.131 | [17] 0.093 | [18] -0.104 | [19] 0.003 | [20] 0.045

PPCDC (UniProt Q96CD2)
inactive: [1] 0.117 | [2] -0.008 | [3] 0.024 | [4] -0.126 | [5] -0.042 | [6] -0.017 | [7] -0.034 | [8] 0.116 | [9] 0.027 | [10] 0.11 | [11] 0.048 | [12] 0.098 | [13] 0.091 | [14] -0.1 | [15] 0.1 | [16] -0.093 | [17] 0.045 | [18] 0.055 | [19] 0.006 | [20] 0.031

POLR2H (UniProt P52434)
inactive: [1] -0.073 | [2] -0.03 | [3] -0.029 | [4] -0.068 | [5] -0.053 | [6] 0.184 | [7] -0.014 | [8] -0.016 | [9] -0.053 | [10] -0.041 | [11] 0.06 | [12] -0.052 | [13] 0.18 | [14] 0.048 | [15] 0.129 | [16] 0.086 | [17] -0.001 | [18] 0.094 | [19] 0.023 | [20] -0.069

POLR3F (UniProt Q9H1D9)
inactive: [1] -0.032 | [2] 0.012 | [3] 0.043 | [4] 0.019 | [5] -0.091 | [6] 0.036 | [7] 0.026 | [8] -0.015 | [9] 0.134 | [10] -0.056 | [11] 0.012 | [12] 0.069 | [13] 0.014 | [14] 0.003 | [15] 0.008 | [16] -0.01 | [17] -0.01 | [18] 0.03 | [19] -0.014 | [20] 0.089

PPAN isoform 3 (UniProt Q9NQ55)
inactive: [1] -0.077 | [2] 0.21 | [3] 0.153 | [4] 0.147 | [5] -0.051 | [6] 0.123 | [7] -0.1 | [8] 0.119 | [9] 0.097 | [10] -0.088 | [11] 0.023 | [12] 0.176 | [13] -0.304 | [14] 0.373 | [15] -0.192 | [16] 0.035 | [17] 0.151 | [18] 0.121 | [19] 0.312 | [20] 0.161

PPIP5K2 (UniProt O43314)
inactive: [1] 0.009 | [2] -0.036 | [3] -0.003 | [4] -0.038 | [5] -0.034 | [6] 0.075 | [7] -0.008 | [8] 0.034 | [9] -0.032 | [10] 0.095 | [11] 0.048 | [12] 0.013 | [13] 0.049 | [14] -0.054 | [15] 0.036 | [16] -0.014 | [17] -0.016 | [18] -0.012 | [19] -0.018 | [20] 0.074

POLDIP2 (UniProt Q9Y2S7)
inactive: [1] -0.004 | [2] -0.009 | [3] -0.005 | [4] -0.045 | [5] -0.097 | [6] 0.012 | [7] 0.076 | [8] 0.009 | [9] -0.008 | [10] 0.015 | [11] 0.009 | [12] 0.169 | [13] 0.099 | [14] -0.101 | [15] 0.071 | [16] -0.043 | [17] 0.015 | [18] 0.007 | [19] -0.051 | [20] 0.082

Taken from the entries so far (2 entries):
POGLUT2 (UniProt Q6UW63)
inactive: [1] -0.055 | [2] 0.028 | [3] 0.052 | [4] 0.087 | [5] -0.036 | [6] 0.019 | [7] -0.016 | [8] 0.053 | [9] 0.071 | [10] 0.051 | [11] 0.003 | [12] 0.015 | [13] -0.034 | [14] 0.062 | [15] -0.033 | [16] 0.044 | [17] -0.019 | [18] 0.026 | [19] 0.034 | [20] -0.026

PPFIA2 (UniProt O75334)
inactive: [1] -0.089 | [2] 0.125 | [3] -0.005 | [4] -0.078 | [5] 0.08 | [6] 0.005 | [7] -0.065 | [8] -0.083 | [9] 0.076 | [10] 0.056 | [11] 0.048 | [12] -0.102 | [13] -0.016 | [14] 0.228 | [15] 0.031 | [16] 0.021 | [17] -0.11 | [18] 0.114 | [19] 0.063 | [20] -0.066

Additional results follow:

POFUT1 (UniProt Q9H488)
inactive: [1] -0.03 | [2] 0.012 | [3] 0.141 | [4] 0.09 | [5] -0.071 | [6] -0.018 | [7] 0.012 | [8] 0.064 | [9] -0.04 | [10] 0.038 | [11] 0.026 | [12] 0.079 | [13] 0.03 | [14] 0.059 | [15] 0.008 | [16] 0.051 | [17] -0.014 | [18] -0.018 | [19] -0.017 | [20] 0.03

PNP (UniProt P00491)
inactive: [1] -0.033 | [2] -0.016 | [3] -0.018 | [4] -0.026 | [5] -0.046 | [6] 0.005 | [7] 0 | [8] 0.068 | [9] -0.003 | [10] 0.021 | [11] -0.005 | [12] 0.039 | [13] 0.012 | [14] -0.037 | [15] -0.003 | [16] 0.027 | [17] -0.024 | [18] -0.025 | [19] -0.001 | [20] 0.019
